Measurements taken from patent US20160215065A1 (Genentech, published 2016).
Substitutions are numbered along the chain they refer to. No constants are given. Whether binding was seen depends on the method and setting. Some binding calls cover weakened binding; strength is not graded here.

B1: anti-NSP4 antibody 5-1 (antibody, human IgG1, V domains shown)
VH: EVQLVESGGGLVQPGGSLRLSCAASGFTFSGSGIHWVRQAPGKGLEWVAWISPTGGNTYYADSVKGRFTISADTSKNTAYLQMNSLRAEDTAVYYCAKSLFHNVAFDYWGQGTLVTVSS
VL: DIQMTQSPSSLSASVGDRVTITCRASQDVSTAVAWYQQKPGKAPKLLIYSASFLYSGVPSRFSGSGSGTDFTLTISSLQPEDFATYYCQQSYTTPPTFGQGTKVEIKR
B2: anti-NSP4 antibody 5-2 (antibody, V domains shown)
VH: EVQLVESGGGLVQPGGSLRLSCAASGFTFSNTYISWVRQAPGKGLEWVGFIYPANGATYYADSVKGRFTISADTSKNTAYLQMNSLRAEDTAVYYCARRYRLSFDYWGQGTLVTVSS
VL: B1 VL
B3: anti-NSP4 antibody 5-4 (antibody, V domains shown)
VH: EVQLVESGGGLVQPGGSLRLSCAASGFTFTSYAISWVRQAPGKGLEWVAGISPSNGYTNYADSVKGRFTISADTSKNTAYLQMNSLRAEDTAVYYCARAGRWTHSDIDYWGQGTLVTVSS
VL: B1 VL
B4: anti-NSP4 antibody 3-2 (antibody, human IgG1, V domains shown)
VH: EVQLVESGGGLVQPGGSLRLSCAASGFTFSDYSISWVRQAPGKGLEWVGEINPAGGATYYADSVKGRFTISADTSKNTAYLQMNSLRAEDTAVYYCARGDFPFWSDAYYVMDYWGQGTLVTVSS
VL: B1 VL
notes: also called Ab 3-2; clone 3-2
B5: anti-NSP4 antibody 3-5 (antibody, human IgG1, V domains shown)
VH: EVQLVESGGGLVQPGGSLRLSCAASGFTFSDNDISWVRQAPGKGLEWVGSISPDNGDTNYADSVKGRFTISADTSKNTAYLQMNSLRAEDTAVYYCARDDVPAVFTSAMDYWGQGTLVTVSS
VL: B1 VL
notes: also called Ab 3-5; Ab35
B6: anti-NSP4 antibody 2-1 (antibody, human IgG1, V domains shown)
VH: EVQLVESGGGLVQPGGSLRLSCAASGFTFTDYSIHWVRQAPGKGLEWVAEIYPYSGDTYYADSVKGRFTISADTSKNTAYLQMNSLRAEDTAVYYCARDGDGWFDWAMDYWGQGTLVTVSS
VL: B1 VL
notes: also called clone 2-1
B7: anti-NSP4 antibody 2-3 (antibody, human IgG1, V domains shown)
VH: EVQLVESGGGLVQPGGSLRLSCAASGFTFTDSDISWVRQAPGKGLEWVAWISPSDGATDYADSVKGRFTISADTSKNTAYLQMNSLRAEDTAVYYCAHEASDDDYAIDYWGQGTLVTVSS
VL: B1 VL
notes: also called clone 2-3
B8: anti-NSP4 antibody 2-4 (antibody, human IgG1, V domains shown)
VH: EVQLVESGGGLVQPGGSLRLSCAASGFTFSDYWISWVRQAPGKGLEWVAGISPNNGDTYYADSVKGRFTISADTSKNTAYLQMNSLRAEDTAVYYCAREDDDERDYAMDYWGQGTLVTVSS
VL: B1 VL
notes: also called clone 2-4
B9: NSP4 antibody 5-1 (Fab format) (Fab, V domains shown)
VH: B1 VH
VL: B1 VL
B10: affinity matured anti-NSP4 antibody clone 35.14 (Fab, V domains shown)
VH: B5 VH
VL: B1 VL with T93G, T94F, P96L
B11: affinity matured anti-NSP4 antibody clone 35.50 (Fab, V domains shown)
VH: B5 VH
VL: B1 VL with T93D, T94F, P96L
B12: affinity matured anti-NSP4 antibody clone 35.62 (Fab, V domains shown)
VH: B5 VH
VL: B1 VL with Y92A, T93G, T94F, P96L
B13: affinity matured anti-NSP4 antibody clone 35.77 (Fab, V domains shown)
VH: B1 VH with S99R, L100H, F101L
VL: B1 VL with S91A, T93S, T94A
B14: affinity matured anti-NSP4 antibody clone 51.30 (Fab, V domains shown)
VH: B1 VH with S52P, P53T, T54A
VL: B1 VL with T94A
B15: affinity matured anti-NSP4 antibody clone 51.50 (Fab, V domains shown)
VH: B1 VH
VL: B1 VL with S91A, Y92N, T93S
B16: affinity matured anti-NSP4 antibody clone 51.51 (Fab, V domains shown)
VH: B1 VH with K98R, S99G
VL: B1 VL with T94A
B17: affinity matured anti-NSP4 antibody clone 51.59 (Fab, V domains shown)
VH: B1 VH with K98R, S99V, L100F
VL: B1 VL with S91N, Y92F, T93S, T94S
B18: affinity matured anti-NSP4 antibody clone 51.72 (Fab, V domains shown)
VH: B1 VH
VL: B1 VL with T94A
B19: affinity matured anti-NSP4 antibody clone 51.82 (Fab, V domains shown)
VH: B1 VH with K98R, S99G
VL: B1 VL with S91T, T93N, T94A

Target: T1, recombinant mouse NSP4 (form not stated) (mouse, UniProt Q14B24 40-284, limits assumed)
T1 construct: also called mNSP4; soluble mNSP4
T1 sequence (looked up): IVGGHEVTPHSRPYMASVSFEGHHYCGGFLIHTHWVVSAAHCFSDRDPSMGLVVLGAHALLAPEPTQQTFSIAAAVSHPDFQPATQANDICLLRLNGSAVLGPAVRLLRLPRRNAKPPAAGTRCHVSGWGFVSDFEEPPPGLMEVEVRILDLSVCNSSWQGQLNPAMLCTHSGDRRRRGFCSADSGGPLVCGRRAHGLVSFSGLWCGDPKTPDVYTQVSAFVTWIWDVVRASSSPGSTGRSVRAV
Experiment: BLI; antibody on sensor, 50 nM mouse NSP4 preincubated with buffer or Fab 5-1

Binder	binding
B1	binds
B2	binds
B3	binds
B4	binds
B5	binds

Target: T2, mouse zymogen NSP4 (mZ) (mouse, UniProt Q14B24 36-284)
T2 construct: mature; Expressed in CHO cells; also called mZ-NSP4; mZ (NSP4); not shown: N-terminal FLAG tag cleavable by enteropeptidase (cleavage after Asp-Asp-Asp-Asp-Lys)
T2 sequence (looked up): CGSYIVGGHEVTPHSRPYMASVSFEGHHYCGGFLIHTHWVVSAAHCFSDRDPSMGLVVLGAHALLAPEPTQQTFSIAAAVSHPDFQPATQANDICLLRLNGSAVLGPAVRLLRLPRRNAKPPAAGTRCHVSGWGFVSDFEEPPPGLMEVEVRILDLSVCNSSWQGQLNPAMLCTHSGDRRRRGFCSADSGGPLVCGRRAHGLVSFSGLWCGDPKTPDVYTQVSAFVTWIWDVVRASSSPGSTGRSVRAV
Experiment: competition phage ELISA (phage IC50); phage clone preincubated with soluble mZ-NSP4, unbound phage caught on coated NSP4, A450 [Cont.]

Binder	binding
B4	binds
B5	binds

Target: T2, mouse zymogen NSP4 (mZ)
Experiment: biolayer interferometry; human IgG1

Binder	binding
B4	binds
B5	binds
B6	binds
B7	binds
B8	binds

Target: T1, recombinant mouse NSP4 (form not stated)
Experiment: BLI; Ab 3-2 or Ab 3-5 on sensor, mouse NSP4 preincubated with Fab 5-1

Binder	binding
B9	binds

Target: T1, recombinant mouse NSP4 (form not stated)
Experiment: biolayer interferometry; antibody on sensor, 50 nM mouse NSP4 preincubated with Fab 5-1

Binder	binding
B4	binds
B5	binds

Target: T1, recombinant mouse NSP4 (form not stated)
Experiment: biolayer interferometry; Fab 5-1 preincubated with mouse NSP4 as competitor

Binder	binding
B9	binds

Target: T3, recombinant human NSP4 (form not stated) (human) (UniProt Q6UWY2)
T3 sequence (looked up): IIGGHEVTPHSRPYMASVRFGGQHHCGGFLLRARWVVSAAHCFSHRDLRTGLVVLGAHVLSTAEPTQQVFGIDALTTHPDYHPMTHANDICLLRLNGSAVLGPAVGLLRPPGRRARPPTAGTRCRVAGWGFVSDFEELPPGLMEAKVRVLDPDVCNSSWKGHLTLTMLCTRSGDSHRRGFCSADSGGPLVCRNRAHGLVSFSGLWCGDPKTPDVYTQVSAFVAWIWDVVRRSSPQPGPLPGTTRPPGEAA
Experiment: BLI; antibody on sensor, human NSP4 with or without heparin sulfate

Binder	binding
B5	binds

Target: T1, recombinant mouse NSP4 (form not stated)
Experiment: BLI; antibody on sensor, 50 nM mouse NSP4 preincubated with buffer or 10 ug/ml heparin sulfate

Binder	binding
B1	binds
B2	binds
B3	binds
B4	binds
B5	binds

Target: T1, recombinant mouse NSP4 (form not stated)
Experiment: competition phage ELISA (phage IC50) with soluble mNSP4 competitor, A450

Binder	binding
B1	binds
B5	binds
B10	binds
B11	binds
B12	binds
B13	binds
B14	binds
B15	binds
B16	binds
B17	binds
B18	binds
B19	binds

Target: T2, mouse zymogen NSP4 (mZ)
Experiment: BLI; IgG1 on anti-human Fc sensor, NSP4 variant in solution, concentration not on sheet

Binder	binding
B4	binds
B5	binds
B6	binds
B7	binds
B8	binds

Target: T3, recombinant human NSP4 (form not stated) (human)
Experiment: BLI; antibody on sensor, human NSP4 with or without Fab 5-1

Binder	binding
B5	binds

Target: T3, recombinant human NSP4 (form not stated) (human)
Experiment: BLI; Ab 3-5 on sensor, human NSP4 with Fab 5-1

Binder	binding
B9	binds

Target: T3, recombinant human NSP4 (form not stated) (human)
Experiment: competition phage ELISA (phage IC50) with soluble hNSP4 competitor, A450

Binder	binding
B5	binds
B10	binds
B11	binds
B12	binds

Target: T1, recombinant mouse NSP4 (form not stated)
Experiment: phage IC50 assay

Binder	binding
B10	binds
B11	binds
B12	binds
B13	binds
B14	binds
B15	binds
B16	binds
B17	binds
B18	binds
B19	binds
